From patent US20240382511A1, “NICOTINAMIDE MONONUCLEOTIDE DERIVATIVES AND USE THEREOF FOR THE TREATMENT OF HEART FAILURE WITH PRESERVED EJECTION FRACTION” (NUVAMID SA, priority 2021, published 2024)

Test system: free choice fed hamsters (diet-induced NASH hamster model of HFpEF)
Assay: Body weight, food and water intake in diet-induced NASH hamster model of HFpEF
Format: in vivo, hamster (Golden Syrian)
Details: 5 weeks of treatment once a day per os (compound 001 600 mg/kg, vardenafil 10 mg/kg), vs vehicle, FIG. 6
Source text: Animals. Male hamsters (Golden Syrian), 4-week-old at receipt, were acclimated at least 5 days before the beginning of the study. Control animals were fed with a chow diet with normal tap water. For diet-induced NASH model, animals were fed with a free choice diet consisting of (a) a chow diet with normal water and (b) a high fat/cholesterol diet with 10% fructose enriched tap water. Food and water intake have been measured once a week. Dosage regimen and test groups. Animals were divided into 5 groups: [table] The study was conducted over 20 weeks. Treatments were administered from week 15 until the end of the experiment (duration 5 weeks), once a day, per os, at a rate of 10 ml/kg. Water was used as vehicle. Vardenafil was used as reference compound. Data analysis. All graphs represent means±standard error of mean (sem). Statistical analysis has been performed using GraphPad Prism 5 software. Single comparisons were made using Student's unpaired t-test or Mann Whitney in case of significant variance. Multiple comparisons have been carried out with two-way ANOVA followed by post-hoc Bonferroni test or one-way ANOVA followed by post-hoc Dunnett or Kruskall-Wallis test in case of significant variance. For all tests, p<0.05 was considered significant. During 20 weeks of diet including 5 weeks under treatment with vehicle, compound 001, vardenafil or both, body weight, food and water intake were recorded once a week. Blood was collected at week 14 and week 20 to measure plasma insulin, glucose and ALT/AST, and NT-pro BNP level was evaluated at week 20. Echocardiographic studies were assessed at week 14 and week 20. Finally, heart, liver and lungs were collected to be weighted and normalized to tibia length.

Structure (SMILES): NC(=O)c1ccc[n+]([C@@H]2O[C@H](COP(=O)([O-])O)[C@@H](O)[C@H]2O)c1 [compound 001, nicotinamide mononucleotide]
- fructose consumption (fructose-supplemented water): significant reduction in fructose consumption
- high fat/cholesterol diet consumption: seemed to decrease high fat/cholesterol diet consumption
- water consumption: increase in water consumption
